Measurements published in PMC10315272.
The exact form of at least one protein or probe is not confirmed.

Molecular target: MhDREB2A-His (UniProt A0A4D6NVN0)
Assay: EMSA
Settings: excess unlabeled probe used as competitor; LightShift Chemiluminescent EMSA Kit (Thermo) per manufacturer; pH and temperature not stated; recombinant protein; protein details: His (pEASY-Blunt E2); label: 5'-biotin

## AAAGGAGGATATTTAATTTTAAAACCGACACTTGTCCAGACACCACTACT (double strand) [ProMhZAT10 DRE probe]
  binding result: binds
